The target in experiment [1] is ITSN1-S fused to a Venus fragment (VN-ITSN1-S, VC-ITSN1-S). Nature of the experiment: split reporter; BiFC; VN and VC (Venus) fusions co-transfected in COS cells with CFP as marker; confocal imaging the next morning.
The target of experiment [2] is HA-epitope tagged CC region of ITSN1. Nature of the experiment: co-IP; HA-tagged ITSN1-S or domains co-expressed with VN-Arfaptin2 (FLAG epitope); HA immunoprecipitates probed for FLAG; cell line not stated.
Experiment [3] addresses HA-epitope tagged ITSN1-S. The experiment is described as above.
For experiment [4], the target named is ITSN1-S fused to a Venus fragment (VN-ITSN1-S, VC-ITSN1-S). Nature of the experiment: split reporter; BiFC; HEK293T cells on coverslips, VN and VC fusions with CFP as marker.

No constants are given. Whether binding was seen depends on the method and setting. In cells and extracts the contact can be indirect. For some of these results: A result given as binding can be weak or reduced; the word gives no strength.

B1: VC-Arfaptin2 (protein, UniProt P53365 1-341)
chain: MTDGILGKAATMEIPIHGNGEARQLPEDDGLEQDLQQVMVSGPNLNETSIVSGGYGGSGDGLIPTGSGRHPSHSTTPSGPGDEVARGIAGEKFDIVKKWGINTYKCTKQLLSERFGRGSRTVDLELELQIELLRETKRKYESVLQLGRALTAHLYSLLQTQHALGDAFADLSQKSPELQEEFGYNAETQKLLCKNGETLLGAVNFFVSSINTLVTKTMEDTLMTVKQYEAARLEYDAYRTDLEELSLGPRDAGTRGRLESAQATFQAHRDKYEKLRGDVAIKLKFLEENKIKVMHKQLLLFHNAVSAYFAGNQKQLEQTLQQFNIKLRPPGAEKPSWLEEQ
As to B1, the binding entry in experiment [1] is listed as “binds”.

B2: VN-Arfaptin2 (protein, UniProt P53365 1-341)
chain: B1 chain
Consider B2, for which the binding result in experiment [2] and in experiment [3] was “binds” each time. On to TSRLPPLGVGN [VC-pep], for which, in experiment [4], the binding entry is “no binding”.

The values above are taken from paper PMC3338775.
